Test results: PMC11009110

By UniProt entry, the sequences of proteins in these tests, tags left out.
UniProt O60925: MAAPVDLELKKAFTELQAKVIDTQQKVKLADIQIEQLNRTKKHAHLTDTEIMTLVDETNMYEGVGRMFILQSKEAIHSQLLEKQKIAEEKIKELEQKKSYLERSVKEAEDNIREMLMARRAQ
UniProt Q99471: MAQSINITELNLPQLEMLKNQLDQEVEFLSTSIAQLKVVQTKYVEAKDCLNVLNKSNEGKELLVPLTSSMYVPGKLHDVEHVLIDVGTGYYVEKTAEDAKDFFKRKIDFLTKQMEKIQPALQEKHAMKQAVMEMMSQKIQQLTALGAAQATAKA
UniProt Q9NQP4: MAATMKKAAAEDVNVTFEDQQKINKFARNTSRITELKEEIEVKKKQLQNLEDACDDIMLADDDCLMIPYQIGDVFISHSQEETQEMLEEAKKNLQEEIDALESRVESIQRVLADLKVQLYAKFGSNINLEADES
UniProt P61758: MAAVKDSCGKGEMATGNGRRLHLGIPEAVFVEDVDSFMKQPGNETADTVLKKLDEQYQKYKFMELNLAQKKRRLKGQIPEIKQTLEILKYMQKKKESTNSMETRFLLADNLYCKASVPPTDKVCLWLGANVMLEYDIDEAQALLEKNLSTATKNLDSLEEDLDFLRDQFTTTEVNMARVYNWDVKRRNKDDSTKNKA
UniProt P62879: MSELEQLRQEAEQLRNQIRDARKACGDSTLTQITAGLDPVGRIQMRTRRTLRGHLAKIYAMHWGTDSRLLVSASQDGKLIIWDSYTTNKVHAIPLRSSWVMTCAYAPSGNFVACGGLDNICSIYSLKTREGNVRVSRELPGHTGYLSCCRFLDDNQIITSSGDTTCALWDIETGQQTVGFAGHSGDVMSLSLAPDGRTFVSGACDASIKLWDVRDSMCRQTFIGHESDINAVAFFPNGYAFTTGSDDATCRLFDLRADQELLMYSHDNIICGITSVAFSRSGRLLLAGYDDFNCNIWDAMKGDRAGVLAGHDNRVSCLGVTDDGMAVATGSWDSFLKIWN

Key:
PFDN2 (human) [1] = target: PFDN2 (human) (UniProt Q9UHV9); test: affinity purification with mass spectrometry + native gel or EMSA; DIP-MS: Strep-Tactin Sepharose purification of the SH-tagged bait (PFDN2 or UXT) from HEK293 lysate (HNN-lysis buffer: 50 mM HEPES, 100 mM NaCl, 50 mM NaF, pH 7.4, 0.5% NP40, benzonase), elution with 2 mM biotin, blue-native PAGE 3-12% Bis-Tris at 4 °C, 1 mm gel slices, DIA-MS; coelution scored with PPIprophet; triplicates for each bait
UXT (human) = UXT (human) (UniProt Q9UBK9); test: as above
PFDN2 (human) [2] = target: PFDN2 (human) (UniProt Q9UHV9); test: affinity purification with mass spectrometry; reciprocal AP-MS of twin-Strep and HA (SH)-tagged baits (11 core subunits of PFD and PFDL containing PAQosome complexes) from cell lines, triplicates, DDA; SAINTExpress scoring against GFP controls
PFDN1 (human) = PFDN1 (human) (UniProt O60925); test: as above
PFDN5 (human) = PFDN5 (human) (UniProt Q99471); test: as above
PFDN4 (human) = PFDN4 (human) (UniProt Q9NQP4); test: as above
VBP1 (human) = VBP1 (human) (UniProt P61758); test: as above

Which results are given for ASDURF (from UniProt L0R819 1-96)?
binding (PFDN2 (human) [1]): binds; binding (UXT (human)): binds

How did the binding (PFDN2 (human) [2]) turn out when GNB2 (from UniProt P62879 1-340) was run?
The binding was “binds”.

And the binding (PFDN1 (human))?
The binding was “binds”.

And the binding (PFDN5 (human))?
The binding was “binds”.

And the binding (PFDN2 (human) [1])?
The binding was “binds”.

What does the source list for PDRG1 (from UniProt Q9NUG6 1-133)?
binding (PFDN4 (human)): no binding; binding (PFDN1 (human)): binds; binding (PFDN5 (human)): binds; binding (VBP1 (human)): binds; binding (PFDN2 (human) [1]): binds; binding (UXT (human)): binds

With PFDN1 (from UniProt O60925 1-122) as the substance, how does the binding (PFDN2 (human) [1]) read?
The binding was “binds”.

And the binding (UXT (human))?
Its binding is “no binding”.

For PFDN2 (from UniProt Q9UHV9 1-154), which binding (UXT (human)) is on record?
Its binding is “binds”.

With PFDN4 (from UniProt Q9NQP4 1-134) as the substance, how does the binding (PFDN2 (human) [1]) read?
The binding was “binds”.

And the binding (UXT (human))?
The binding was “no binding”.

How did the binding (PFDN2 (human) [1]) turn out when PFDN5 (from UniProt Q99471 1-154) was run?
Its binding is “binds”.

Which results are given for PFDN6 (from UniProt O15212 1-129)?
binding (PFDN2 (human) [1]): binds; binding (UXT (human)): binds

For RUVBL1 (from UniProt Q9Y265 1-456), which binding (PFDN2 (human) [1]) is on record?
The binding was “binds”.

And the binding (UXT (human))?
Its binding is “binds”.

For VBP1 (from UniProt P61758 1-197), which binding (UXT (human)) is on record?
Its binding is “no binding”.

For WDR92 (from UniProt Q96MX6 1-357), which binding (PFDN2 (human) [1]) is on record?
Its binding is “binds”.

And the binding (UXT (human))?
Its binding is “binds”.

No constants are given. Whether binding was seen depends on the method and setting. Binding seen in cells or lysates may run through a third protein. A yes stands for co-enrichment or nearness to the bait. Other partners may have been found. For some of these results: No binding means not detected with the bait.
